Our source for the binding values is paper PMC10743763.

Common to all, as to assay: pull-down; GST-tagged OFD1 fragments on glutathione beads incubated overnight at 4 °C with extracts of 293T cells transfected with PXN constructs (mCherry fusions); four washes; Western blot; only the target purified
(In general: Immunoblotting shows a protein as a band on a membrane.)

For assay [1], the target named is T1, GST-OFD1 amino acid residues 145-1012 (human) (UniProt O75665).
T1 sequence: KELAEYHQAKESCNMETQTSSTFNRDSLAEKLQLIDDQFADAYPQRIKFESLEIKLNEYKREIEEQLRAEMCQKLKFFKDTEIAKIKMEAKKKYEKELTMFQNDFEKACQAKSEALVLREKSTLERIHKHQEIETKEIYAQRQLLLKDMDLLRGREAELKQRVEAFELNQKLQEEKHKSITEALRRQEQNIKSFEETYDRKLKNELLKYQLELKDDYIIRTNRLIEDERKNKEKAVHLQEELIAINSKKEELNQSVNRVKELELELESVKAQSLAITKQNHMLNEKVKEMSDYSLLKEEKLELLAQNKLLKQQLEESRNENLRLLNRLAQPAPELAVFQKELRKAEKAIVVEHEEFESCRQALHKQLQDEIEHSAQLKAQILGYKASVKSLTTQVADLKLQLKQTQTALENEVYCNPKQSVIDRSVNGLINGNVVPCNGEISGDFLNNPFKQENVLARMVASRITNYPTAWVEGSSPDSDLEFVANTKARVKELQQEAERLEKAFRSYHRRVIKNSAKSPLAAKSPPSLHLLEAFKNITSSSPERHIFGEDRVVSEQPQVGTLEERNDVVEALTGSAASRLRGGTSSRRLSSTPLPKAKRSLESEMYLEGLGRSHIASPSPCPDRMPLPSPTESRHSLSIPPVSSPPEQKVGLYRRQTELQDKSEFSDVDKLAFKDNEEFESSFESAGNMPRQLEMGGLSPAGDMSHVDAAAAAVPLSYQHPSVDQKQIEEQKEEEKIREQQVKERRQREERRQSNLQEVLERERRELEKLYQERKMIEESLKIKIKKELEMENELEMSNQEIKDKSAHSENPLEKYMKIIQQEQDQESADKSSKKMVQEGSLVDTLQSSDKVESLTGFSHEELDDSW

In assay [2] the target is T2, GST-OFD1 amino acid residues 365-1012 (human) (UniProt O75665).
T2 sequence: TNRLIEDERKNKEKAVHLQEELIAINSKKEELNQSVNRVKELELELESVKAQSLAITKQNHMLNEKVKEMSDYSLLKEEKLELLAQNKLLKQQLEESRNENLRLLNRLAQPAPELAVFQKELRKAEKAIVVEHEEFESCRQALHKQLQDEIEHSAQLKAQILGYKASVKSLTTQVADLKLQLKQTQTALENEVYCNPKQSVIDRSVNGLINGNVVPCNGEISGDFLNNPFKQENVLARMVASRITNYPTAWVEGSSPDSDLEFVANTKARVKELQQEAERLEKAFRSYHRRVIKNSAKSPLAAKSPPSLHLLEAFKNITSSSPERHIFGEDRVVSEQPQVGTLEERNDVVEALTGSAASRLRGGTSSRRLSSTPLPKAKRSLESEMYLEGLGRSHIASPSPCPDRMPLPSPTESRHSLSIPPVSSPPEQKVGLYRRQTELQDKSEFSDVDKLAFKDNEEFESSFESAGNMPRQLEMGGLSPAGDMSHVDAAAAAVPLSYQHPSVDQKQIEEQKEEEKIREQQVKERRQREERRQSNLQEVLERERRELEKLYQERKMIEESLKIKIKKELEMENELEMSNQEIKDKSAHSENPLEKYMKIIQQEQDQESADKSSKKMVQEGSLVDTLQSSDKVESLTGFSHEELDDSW

Assay [3] concerns the target T3, GST-OFD1 amino acid residues 601-1012 (human) (UniProt O75665).
T3 sequence: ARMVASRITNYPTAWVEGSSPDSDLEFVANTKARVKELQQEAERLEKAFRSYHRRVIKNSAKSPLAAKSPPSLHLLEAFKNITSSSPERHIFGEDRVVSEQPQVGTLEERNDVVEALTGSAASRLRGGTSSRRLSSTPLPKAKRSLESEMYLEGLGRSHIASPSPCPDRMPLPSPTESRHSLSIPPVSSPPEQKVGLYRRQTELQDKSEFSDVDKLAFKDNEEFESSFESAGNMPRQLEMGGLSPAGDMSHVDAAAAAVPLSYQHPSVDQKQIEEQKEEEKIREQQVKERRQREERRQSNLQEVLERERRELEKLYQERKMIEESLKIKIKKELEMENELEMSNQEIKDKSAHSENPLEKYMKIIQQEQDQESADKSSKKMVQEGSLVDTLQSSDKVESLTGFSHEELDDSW

Assay [4] has as its target T4, GST-OFD1 amino acid residues 765-1012 (human) (UniProt O75665).
T4 sequence: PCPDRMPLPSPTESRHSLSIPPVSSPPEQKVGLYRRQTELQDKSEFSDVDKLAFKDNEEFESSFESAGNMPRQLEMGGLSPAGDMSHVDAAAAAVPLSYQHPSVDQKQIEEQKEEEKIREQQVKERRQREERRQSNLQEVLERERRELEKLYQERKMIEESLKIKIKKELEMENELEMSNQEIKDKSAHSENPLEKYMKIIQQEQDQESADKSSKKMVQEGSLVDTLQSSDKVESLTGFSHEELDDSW

Assay [5] concerns the target T5, GST-OFD1 3-601 construct (human) (UniProt O75665).
T5 sequence: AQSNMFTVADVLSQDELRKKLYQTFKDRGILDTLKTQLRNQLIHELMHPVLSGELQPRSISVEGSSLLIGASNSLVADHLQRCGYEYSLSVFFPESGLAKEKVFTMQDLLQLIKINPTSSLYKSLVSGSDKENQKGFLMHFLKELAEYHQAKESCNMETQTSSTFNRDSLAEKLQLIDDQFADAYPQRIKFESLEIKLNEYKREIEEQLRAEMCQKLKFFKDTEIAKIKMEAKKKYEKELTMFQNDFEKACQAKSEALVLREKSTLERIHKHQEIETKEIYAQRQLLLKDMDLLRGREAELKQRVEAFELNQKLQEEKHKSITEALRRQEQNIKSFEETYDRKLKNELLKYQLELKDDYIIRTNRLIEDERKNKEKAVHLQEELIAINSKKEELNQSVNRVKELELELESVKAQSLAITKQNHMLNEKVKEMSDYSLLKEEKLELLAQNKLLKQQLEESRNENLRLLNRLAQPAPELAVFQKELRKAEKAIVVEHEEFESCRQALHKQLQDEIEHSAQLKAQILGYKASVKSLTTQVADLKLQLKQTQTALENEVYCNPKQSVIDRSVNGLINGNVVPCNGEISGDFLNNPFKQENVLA

These are yes or no findings as the source states them, for the method shown. Binding seen in cells or lysates may run through a third protein. For part of these data: Binding can be weak; no strength is given. Sequences can lack the tags named with a protein.

Take “C-terminal domain (CTD) of paxillin containing the LIM domains, fused with mCherry (domain or fragment)”: the binding result in assay [1], in assay [2], in assay [3] and in assay [4] was “no binding” in each case.
As for “N-terminal domain (NTD) of paxillin containing the LD domains, fused with mCherry (domain or fragment)”, the binding result is given as “no binding” in assay [5]; “binds” in assay [1]; “binds” in assay [2]; “binds” in assay [3]; “binds” in assay [4].
